Patent publication US20060233883A1, “Intravenous nanoparticles for targeting drug delivery and sustained drug release” (priority 2003, published 2006)

Key:
[1] = Formation of water-insoluble precipitates of drugs with metal ions (turbidity observed); format: physicochemical; conditions: molar ratio varied
Description: Compounds shown in Table 1 below were used to as the low-molecular weight, water-soluble and non-peptide drug having phosphate groups. […] The solution was then added to equal volume of 100 mM aqueous solutions of different metal ions. The turbidity of each of the resulting mixtures was observed.

[2] = tested on: adjuvant-induced arthritis; assay: Activity to suppress adjuvant-induced arthritis (leg volume); format: in vivo, Lewis rats

- molar ratio with respect to zinc ion at which precipitate formation was most significant [1]: approximately 1
SMILES: C[C@H]1C[C@H]2[C@@H]3CCC4=CC(=O)C=C[C@]4(C)[C@@]3(F)[C@@H](O)C[C@]2(C)[C@@]1(O)C(=O)COP(=O)(O)O [betamethasone phosphate]
- Inflammation rate (%) after administration ([2]; day 1, 100 μg single subcutaneous dose): 78.4%
- Inflammation rate (%) after administration ([2]; day 1, 300 μg single subcutaneous dose): 68.3%
- Inflammation rate (%) after administration ([2]; day 2, 100 μg single subcutaneous dose): 80%
- Inflammation rate (%) after administration ([2]; day 2, 300 μg single subcutaneous dose): 76.5%
- Inflammation rate (%) after administration ([2]; day 3, 100 μg single subcutaneous dose): 82.8%
- Inflammation rate (%) after administration ([2]; day 3, 300 μg single subcutaneous dose): 79.2%
- Inflammation rate (%) after administration ([2]; day 4, 100 μg single subcutaneous dose): 85.4%
- Inflammation rate (%) after administration ([2]; day 4, 300 μg single subcutaneous dose): 81.7%
- Inflammation rate (%) after administration ([2]; day 5, 100 μg single subcutaneous dose): 84.2%
- Inflammation rate (%) after administration ([2]; day 5, 300 μg single subcutaneous dose): 88%
- Inflammation rate (%) after administration ([2]; day 6, 100 μg single subcutaneous dose): 83%
- Inflammation rate (%) after administration ([2]; day 7, 100 μg single subcutaneous dose): 81.7%
- Inflammation rate (%) after administration ([2]; day 7, 300 μg single subcutaneous dose): 84.8%
